Values of other authors as cited in paper PMC6662551 (Clinical and Translational Science, 2019).

System: OATP1B1
Details: c.521T>C carriers; cited from earlier work

CC(C)c1c(C(=O)Nc2ccccc2)c(-c2ccccc2)c(-c2ccc(F)cc2)n1CC[C@@H](O)C[C@@H](O)CC(=O)O [atorvastatin]
increase in plasma levels in individuals with the OATP1B1‐Val174Ala variant: 1.5–3 fold
